Laboratory results published in PubChem BioAssay AID493014 (National Center for Advancing Translational Sciences (NCATS), 2011).
About 170 (0.05%) of roughly 340,000 compounds were called active. The inconclusive results got no clear call from the source; some entries with a clear call stand among them for comparison. The call rests on the fitted dose curve; in most records, active means well fitted inhibition curve with a large enough effect in the signal ratio, with a control signal flat (not every such curve was filed as active); inconclusive means small, poorly fitted or top-dose-only effect, or effect the other way, or a change in a side signal; inactive means flat fitted curve, though single readings scatter; the % refers to the signal ratio. Potencies beside an inconclusive call are fits to weak or partial responses and may not hold up.

experiment: qHTS Assay to Find Inhibitors of Chronic Active B-Cell Receptor Signaling; conditions: ABC-DLBCL IkBa-CBG/CBR reporter, luminescence ratio (green luciferase fused to IkBa over red control in TMD8 lymphoma cells), 4 h; activity change, negative = inhibition: at 46.1 µM (top of the series) unless noted;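 on activity change, negative = inhibition: plate controls were basal doxycycline-induced cells for no effect and cells given 10 µM MG132 for full effect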
Outline: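 TMD8 ABC-DLBCL cells carrying doxycycline-inducible green luciferase fused to IkappaBalpha plus unfused red luciferase were exposed to compounds (up to 46 uM) for 4 hrs at 37C. Activity came from the overlap-corrected green/red luminescence ratio.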
Potency means the concentration at half of the fitted maximal effect.

SMILES | Potency | activity change, negative = inhibition
COc1ccc(CCN2C(=NC(=O)CCC(=O)O)SC3CS(=O)(=O)CC32)cc1 (centres undefined) | inconclusive: 35.5 µM [falling, single point] | –
C=CCn1c(N)c(C(=O)OCC(C)C)c2nc3ccccc3nc21 | – | inconclusive: 6.01%
CC(=O)Nc1ccc(S(=O)(=O)NCCc2csc3nc(-c4ccc(Cl)cc4)nn23)cc1 | – | inactive
C=CCNC(=O)c1cc(Cl)cc(Cl)c1 | – | inconclusive: 2.1%
Cn1cnnc1SC(C(=O)Nc1cccc(C(F)(F)F)c1)c1ccccc1 (centres undefined) | inconclusive: 1.84 µM [rising, partial curve, poor fit] | –
O=C(O)c1c(Cl)c(Cl)c(Cl)c(Cl)c1C(=O)N1CCOCC1 | – | inactive
COCCN1C(=O)c2ccc(C(=O)Nc3nccs3)cc2C1=O | – | inconclusive: 4.68%
CCOc1cc(C(=S)N2CCOCC2)ccc1OC(=O)c1cc(OC)c(OC)c(OC)c1 | – | inconclusive: 2.22%
COc1ccc(-n2ncc3c(NC(C)C)ncnc32)cc1 | inconclusive: 25.1 µM [falling, single point] | –
N#CC1CC(c2ccc([N+](=O)[O-])cc2)=NN1c1ccc([N+](=O)[O-])cc1 (centres undefined) | – | inactive
Cc1ccc(CN2CCC(n3nccc3NC(=O)CCCc3ccccc3)CC2)o1 | – | inconclusive: -2.35%
CN(CC(=O)Nc1ccc(Cl)cc1)C(=O)c1ccc(COc2ccccc2)cc1 | – | inconclusive: 4.12%
Cc1cc(NC(=O)c2ccc(F)cc2)n(C)n1 | – | inactive
Cc1cc(Oc2ccc(N)cn2)ccc1Cl | – | inconclusive: -0.354%
Cc1cc(C)nc(N/N=C/c2ccccc2OCc2ccccc2)n1 | inconclusive: 13 µM [falling, partial curve] | –
c1ccc(-c2cc(N3CCCCC3)ncn2)cc1 | – | inconclusive: 12.6%
O=C(NCCCN1CCOCC1)c1ccc(/C=C2\Oc3ccccc3N(Cc3ccccc3F)C2=O)cc1 | – | inactive
CNC(=O)c1cc2ccc(OC)cc2oc1=O | inconclusive: 2.91 µM [rising, partial curve, poor fit] | –
O=C(c1cccc(-c2nnc(-c3ccccc3)o2)c1)N1CCCCCC1 | inconclusive: 0.731 µM [rising, full curve, poor fit] | –
COc1cccc(C(=O)Nc2ccc3nc(N4CCOCC4)cc(C)c3c2)c1 | inconclusive: 2.31 µM [falling, partial curve] | –
CCN(CC)S(=O)(=O)c1nnc(NC(=O)c2ccco2)s1 | – | inconclusive: 5.7%
CCOC(=O)CN1C(=O)C(C)(C)Oc2ccc(C(=O)Nc3ccccc3OC)cc21 | – | inconclusive: 7.24%
Cn1cccc1C(=O)OCc1ccc(C(C)(C)C)cc1 | inconclusive: 10 µM [rising, partial curve, poor fit] | –
Cc1ccc(S(=O)(=O)NCC(=O)N(CC(=O)NCc2ccccc2)CC2CCCO2)cc1 (centres undefined) | – | inconclusive: -2.59%
N#Cc1cccc(NC(=O)CCNC(=O)c2ccccc2Cl)c1 | – | inconclusive: 1.62%
Cc1ccc(-c2nnc(CCC(=O)N(C)Cc3nccs3)o2)s1 | – | inconclusive: 15.6%
Cc1sc(/N=C/c2ccccc2O)c(C#N)c1C | – | inconclusive: -13.1%

Among those listed so far, 2 have a furan ring, fused or not.
SMILES | Potency | activity change, negative = inhibition
Cc1ccc(CN2CCC(n3nccc3NC(=O)CCCc3ccccc3)CC2)o1 | – | inconclusive: -2.35%
CCN(CC)S(=O)(=O)c1nnc(NC(=O)c2ccco2)s1 | – | inconclusive: 5.7%

Next part:

SMILES | Potency | activity change, negative = inhibition
CCOc1cccc2cc(-c3csc(NC(=O)CCC(=O)N4CCC(C)CC4)n3)c(=O)oc12 | – | inconclusive: -9.21%
CCCCn1c(SCC(=O)c2cc(OC)ccc2OC)nc2cc(S(N)(=O)=O)ccc21 | inconclusive: 17.8 µM [falling, single point] | –
Cc1cccc(OCCn2c(=S)[nH]c3ccccc32)c1 | – | inconclusive: -6.52%
CC(C)=NOCC(=O)Nn1c(COc2ccccc2)nc2ccccc2c1=O | – | inconclusive: -14.1%
COc1ccccc1C(=O)O/N=C(\N)c1ccc(Cl)cc1 | inconclusive: 35.5 µM [rising, single point] | –
CCOc1ccc(S(=O)(=O)Nc2cccc(C(=O)NCC(c3ccc(OC)cc3)N3CCOCC3)c2)cc1 (centres undefined) | – | inactive
CC(C)CCn1c(=O)c2ccccc2n2c(CCl)nnc12 | – | inconclusive: -18.2%
CCOC(=O)C1(CC2CCCCO2)CCN(S(=O)(=O)c2ccc(OC)cc2)CC1 (centres undefined) | – | inconclusive: 5.49%
CCCCNC(=O)C1CCN(C(=O)Nc2ccc(C)cc2)CC1 | – | inconclusive: 12.9%
CCOC(=O)/C(C#N)=C\c1ccc(CC)s1 | – | inconclusive: 5.21%
COc1ccccc1C(CNC(=O)C1CCN(C(=O)Nc2ccccc2)CC1)N1CCCC1 (centres undefined) | – | inconclusive: 8.46%
CN(C(=S)NC(=O)c1ccc(F)cc1)C1CCCCC1 | – | inconclusive: 1.86%
Cc1ccccc1Nc1nc(N2CCOCC2)nc(N2CCOCC2)n1 | inconclusive: 15.8 µM [falling, single point] | –
CCOc1ccc(NC(=O)C(C)NS(=O)(=O)c2ccc(NC(C)=O)cc2)cc1 (centres undefined) | – | inconclusive: -1.57%
O=C(CCN1C(=O)C2C3CCC(C3)C2C1=O)Nc1ccc(F)cc1 (centres undefined) | – | inactive
O=C(CNCc1ccco1)Nc1cc(S(=O)(=O)N2CCOCC2)ccc1N1CCOCC1 | – | inconclusive: -1.13%
C=CCNCCOc1ccc(C)cc1[N+](=O)[O-] | inconclusive: 14.1 µM [falling, partial curve] | –
CCOC(=O)c1ccc2ncc(C(=O)OCC)c(NCCCN3CCOCC3)c2c1 | – | inconclusive: -0.164%
Cc1ccc(C(=O)N(CC(=O)Nc2sc(C)c(C)c2C(N)=O)C2CCCC2)cc1 | – | inconclusive: 11.6%
Cc1cc(Cl)ccc1NC(=S)NCc1ccccc1Cl | – | inconclusive: -0.111%
Cc1ccc(C(=O)NCC(=O)OCC(=O)NCCNC(=O)COC(=O)CNC(=O)c2ccc(C)cc2)cc1 | – | inconclusive: 1.13%
CCN(CC)CCCNC(=O)c1sc2nc(-c3ccc(F)cc3)cn2c1C | inconclusive: 4.11 µM [activator, full curve, poor fit] | –
O=C(NCC1OCCc2ccccc21)c1ccc(NC(=O)c2ccccc2Cl)cc1 (centres undefined) | – | inconclusive: -11.2%
O=C(O)CCC(=O)NCc1ccc(F)cc1 | – | inconclusive: 8.36%
Cc1cccc(NC(=O)CSCC(=O)Nc2ccccc2C(=O)NC2CC2)c1 | inconclusive: 16.4 µM [falling, partial curve, poor fit] | –
O=C(NCC(c1ccco1)N1CCc2ccccc21)c1ccc([N+](=O)[O-])cc1 (centres undefined) | – | inconclusive: -25.7%
COC(=O)c1ccc(CSc2ccc3nnc(-c4ccc(F)cc4)n3n2)o1 | inconclusive: 6.31 µM [falling, single point] | –

In the list so far, these have fluorine:
SMILES | Potency | activity change, negative = inhibition
Cn1cnnc1SC(C(=O)Nc1cccc(C(F)(F)F)c1)c1ccccc1 (centres undefined) | inconclusive: 1.84 µM [rising, partial curve, poor fit] | –
Cc1cc(NC(=O)c2ccc(F)cc2)n(C)n1 | – | inactive
O=C(NCCCN1CCOCC1)c1ccc(/C=C2\Oc3ccccc3N(Cc3ccccc3F)C2=O)cc1 | – | inactive
CN(C(=S)NC(=O)c1ccc(F)cc1)C1CCCCC1 | – | inconclusive: 1.86%
O=C(CCN1C(=O)C2C3CCC(C3)C2C1=O)Nc1ccc(F)cc1 (centres undefined) | – | inactive
CCN(CC)CCCNC(=O)c1sc2nc(-c3ccc(F)cc3)cn2c1C | inconclusive: 4.11 µM [activator, full curve, poor fit] | –
O=C(O)CCC(=O)NCc1ccc(F)cc1 | – | inconclusive: 8.36%
COC(=O)c1ccc(CSc2ccc3nnc(-c4ccc(F)cc4)n3n2)o1 | inconclusive: 6.31 µM [falling, single point] | –

Continuation:

SMILES | Potency | activity change, negative = inhibition
O=S(=O)(N1CCCCC1)N1CCN(c2ccccc2F)CC1 | inconclusive: 29.1 µM [falling, single point] | –
CCN(CC)S(=O)(=O)c1ccc(Cl)c(OC)c1 | – | inconclusive: -7.6%
O=C(Nc1ccc(Cl)c(Cl)c1)Nc1nnc(CC2=CCCCC2)s1 | – | inconclusive: 17.1%
Cc1ccc(C(=O)N/N=C\c2ccc[nH]2)cn1 | – | inconclusive: 11.2%
O=C(Cn1c(=O)c2c3c(sc2n(Cc2ccccc2)c1=O)CCCC3)NCCO | – | inconclusive: 1.52%
Cc1ccc(O)c(NC(=O)c2cc(-c3ccco3)on2)c1 | inconclusive: 17.8 µM [falling, partial curve] | –
Cc1ccc(N2N=C(c3ccc(Br)cc3)CCC2=O)cc1 | – | inconclusive: 6.18%
CC1=C(C(=O)OC(C)C)C(C2CC=CCC2)NC(=O)N1 (centres undefined) | – | inconclusive: 7.36%
COc1ccc(N(CC(=O)Nc2ccccc2C(=O)O)S(=O)(=O)c2ccc(C)c([N+](=O)[O-])c2)cc1 | – | inconclusive: 8.61%
CCOc1cc(/C=N\NC(=O)c2c(C)nc3ccccn23)ccc1O | inconclusive: 35.5 µM [falling, single point] | –
CCCOC(=O)CC1C(=O)NCCN1Cc1ccc(F)cc1 (centres undefined) | inconclusive: 2.59 µM [rising, partial curve, poor fit] | –
Cc1[nH]nc(N=CC2=C(O)CC(c3ccco3)CC2=O)c1-c1ccc(Cl)cc1 (centres undefined) | – | inconclusive: -15.9%
CCNC(=O)NC(=O)C(C)Sc1nc2ccccc2n1CC(C)C (centres undefined) | – | inactive
CC(C)(C)n1nc2c(c1NC(=O)COc1ccc(Cl)cc1)CSC2 | – | inconclusive: 9.27%
O=C(N/N=C/C1CC2CCC1C2)c1ccc2c(c1)OCO2 (centres undefined) | inconclusive: 23.1 µM [falling, partial curve] | –
CC(C)OC(=O)C1=C(N)N2C(=O)CSC2=C(C(=O)OC(C)C)C1 | – | inconclusive: 1.72%
Cc1cc2c(c(=O)o1)C1O[C@](c3ccsc3)(Cc3ccccc31)O2 | inconclusive: 3.98 µM [rising, partial curve, poor fit] | –
Cc1cc(C)c2[nH]c(=O)c(C(c3nnnn3C3CCCC3)N3CCOCC3)cc2c1 (centres undefined) | – | inactive
COc1ccc(CCNC(=O)C2CCCN2S(=O)(=O)c2ccc(F)cc2)cc1OC (centres undefined) | – | inconclusive: 0.305%
Cc1ccc(NC(=S)N(CCN2CCOCC2)Cc2cc3cc4c(cc3[nH]c2=O)OCO4)cc1 | – | inconclusive: 2.66%
CCN(CC)S(=O)(=O)c1cc(NC(=O)c2ccc(Br)s2)ccc1C | – | inconclusive: -1.01%
CC1(C)Cc2ccccc2C2=NNC(=O)C2=N1 | inconclusive: 20 µM [falling, single point] | –
CCOc1cc(-c2nnc(SCC(=O)NC3CCCCC3)nc2-c2ccc(OC)c(OCC)c2)ccc1OC | inconclusive: 5.62 µM [falling, full curve, poor fit] | –
COc1ccc2c(c1)c1ncn(CCc3ccccc3)c(=O)c1n2C | – | inconclusive: -0.12%
CCCCn1c(SCc2nc3ccccc3s2)nc2ccccc2c1=O | – | inactive
